The other results are listed elsewhere or left out.
Legend:
Test in all cases: log2 fold change, soluble protein after heating vs DMSO (PISA); higher = thermal stabilisation; K562 lysate, 10 uM; active = over 0.2 and 3.5 SD of the protein, either way, in both replicates (recomputed)
[1] = compound: CS(=O)(=O)CCNCc1ccc(-c2ccc3ncnc(Nc4ccc(OCc5cccc(F)c5)c(Cl)c4)c3c2)o1 [lapatinib]
Method in brief: (§1)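 K562 pellets were dounce-homogenised in PBS pH 7.4 containing 1 mM MgCl2, and the crude extract, at 1 mg/mL protein, was exposed to 10 μM compound for 30 min. Aliquots were heated for 3 min across 48°C-58°C, pooled, brought to 0.5% NP-40 at 4°C and spun at 21,000xg for 90 min, with the supernatant taken as soluble protein. TMTpro 16plex LC-MS/MS with equalised channel sums quantified that protein. Values are log-two fold changes in thermal stability relative to solvent controls, taken from duplicates.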

The chains behind the UniProt entries cited, without tags or fusion partners. Where a name states a change or a piece, a line headed by the entry shows the natural chain unless it says otherwise.
UniProt Q8N4P3, whole entry, looked up: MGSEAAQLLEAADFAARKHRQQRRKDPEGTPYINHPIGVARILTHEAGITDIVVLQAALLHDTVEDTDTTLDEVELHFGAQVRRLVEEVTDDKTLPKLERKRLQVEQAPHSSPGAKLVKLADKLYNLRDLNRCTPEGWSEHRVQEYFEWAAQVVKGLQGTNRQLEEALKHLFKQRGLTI
UniProt P00390: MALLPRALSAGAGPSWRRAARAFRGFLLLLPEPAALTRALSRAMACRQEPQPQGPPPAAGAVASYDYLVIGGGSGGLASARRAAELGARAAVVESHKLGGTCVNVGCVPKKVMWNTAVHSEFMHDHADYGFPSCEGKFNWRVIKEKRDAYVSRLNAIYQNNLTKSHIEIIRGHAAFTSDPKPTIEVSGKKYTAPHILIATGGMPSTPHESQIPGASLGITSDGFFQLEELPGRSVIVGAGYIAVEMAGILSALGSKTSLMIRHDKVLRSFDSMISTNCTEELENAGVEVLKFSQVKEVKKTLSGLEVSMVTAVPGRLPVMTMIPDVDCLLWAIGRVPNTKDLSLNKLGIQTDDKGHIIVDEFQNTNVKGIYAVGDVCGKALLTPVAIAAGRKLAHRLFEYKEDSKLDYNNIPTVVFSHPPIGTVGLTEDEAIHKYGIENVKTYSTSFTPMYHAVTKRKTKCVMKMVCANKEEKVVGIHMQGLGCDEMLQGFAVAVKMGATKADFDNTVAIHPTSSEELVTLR
UniProt Q9H6D7: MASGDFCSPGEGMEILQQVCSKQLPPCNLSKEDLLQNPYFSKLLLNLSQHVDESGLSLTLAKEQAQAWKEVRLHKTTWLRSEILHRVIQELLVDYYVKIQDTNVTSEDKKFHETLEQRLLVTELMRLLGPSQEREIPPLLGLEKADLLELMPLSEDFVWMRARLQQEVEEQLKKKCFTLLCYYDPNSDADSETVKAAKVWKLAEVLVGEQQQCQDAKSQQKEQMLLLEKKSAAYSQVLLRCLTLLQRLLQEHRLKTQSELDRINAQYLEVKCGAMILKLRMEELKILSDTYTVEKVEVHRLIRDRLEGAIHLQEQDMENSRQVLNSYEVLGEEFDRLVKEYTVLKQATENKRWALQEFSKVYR
UniProt Q9P0R6: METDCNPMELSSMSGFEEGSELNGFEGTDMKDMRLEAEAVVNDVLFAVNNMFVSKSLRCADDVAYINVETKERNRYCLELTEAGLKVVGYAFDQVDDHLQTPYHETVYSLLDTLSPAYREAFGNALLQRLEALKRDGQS
UniProt P49590: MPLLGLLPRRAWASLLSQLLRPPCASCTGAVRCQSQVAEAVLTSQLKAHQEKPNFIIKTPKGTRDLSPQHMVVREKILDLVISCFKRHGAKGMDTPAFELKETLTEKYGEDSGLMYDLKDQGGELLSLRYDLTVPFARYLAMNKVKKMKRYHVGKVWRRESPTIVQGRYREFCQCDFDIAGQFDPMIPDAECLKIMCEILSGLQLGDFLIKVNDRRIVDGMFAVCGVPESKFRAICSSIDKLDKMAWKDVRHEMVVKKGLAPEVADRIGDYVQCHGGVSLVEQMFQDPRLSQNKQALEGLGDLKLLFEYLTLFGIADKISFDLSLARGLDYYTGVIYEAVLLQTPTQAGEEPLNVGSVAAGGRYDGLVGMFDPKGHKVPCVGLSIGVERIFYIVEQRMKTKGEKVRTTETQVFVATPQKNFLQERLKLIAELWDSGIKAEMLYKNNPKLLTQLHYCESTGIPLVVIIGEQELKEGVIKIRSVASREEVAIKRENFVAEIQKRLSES
UniProt Q16836: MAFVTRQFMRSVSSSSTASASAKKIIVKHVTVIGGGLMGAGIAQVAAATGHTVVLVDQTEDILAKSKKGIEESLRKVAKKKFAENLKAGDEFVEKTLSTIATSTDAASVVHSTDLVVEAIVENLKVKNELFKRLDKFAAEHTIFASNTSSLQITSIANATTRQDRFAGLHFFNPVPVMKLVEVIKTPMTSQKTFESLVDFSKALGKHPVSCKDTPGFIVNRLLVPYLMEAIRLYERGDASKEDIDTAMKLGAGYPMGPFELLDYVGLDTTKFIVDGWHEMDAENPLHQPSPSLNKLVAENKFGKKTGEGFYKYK
UniProt O15379: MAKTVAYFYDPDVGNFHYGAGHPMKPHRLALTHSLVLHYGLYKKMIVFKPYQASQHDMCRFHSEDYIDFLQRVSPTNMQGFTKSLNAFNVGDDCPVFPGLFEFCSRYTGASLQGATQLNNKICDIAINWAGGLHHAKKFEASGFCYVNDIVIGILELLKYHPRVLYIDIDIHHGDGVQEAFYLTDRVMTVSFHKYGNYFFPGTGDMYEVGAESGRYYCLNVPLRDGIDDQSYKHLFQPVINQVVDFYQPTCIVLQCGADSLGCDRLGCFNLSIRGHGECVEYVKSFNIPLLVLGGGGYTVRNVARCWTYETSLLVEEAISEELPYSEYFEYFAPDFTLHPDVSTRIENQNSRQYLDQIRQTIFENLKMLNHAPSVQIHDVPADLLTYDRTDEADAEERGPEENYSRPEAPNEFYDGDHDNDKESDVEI
UniProt Q8IYD1, whole entry, looked up: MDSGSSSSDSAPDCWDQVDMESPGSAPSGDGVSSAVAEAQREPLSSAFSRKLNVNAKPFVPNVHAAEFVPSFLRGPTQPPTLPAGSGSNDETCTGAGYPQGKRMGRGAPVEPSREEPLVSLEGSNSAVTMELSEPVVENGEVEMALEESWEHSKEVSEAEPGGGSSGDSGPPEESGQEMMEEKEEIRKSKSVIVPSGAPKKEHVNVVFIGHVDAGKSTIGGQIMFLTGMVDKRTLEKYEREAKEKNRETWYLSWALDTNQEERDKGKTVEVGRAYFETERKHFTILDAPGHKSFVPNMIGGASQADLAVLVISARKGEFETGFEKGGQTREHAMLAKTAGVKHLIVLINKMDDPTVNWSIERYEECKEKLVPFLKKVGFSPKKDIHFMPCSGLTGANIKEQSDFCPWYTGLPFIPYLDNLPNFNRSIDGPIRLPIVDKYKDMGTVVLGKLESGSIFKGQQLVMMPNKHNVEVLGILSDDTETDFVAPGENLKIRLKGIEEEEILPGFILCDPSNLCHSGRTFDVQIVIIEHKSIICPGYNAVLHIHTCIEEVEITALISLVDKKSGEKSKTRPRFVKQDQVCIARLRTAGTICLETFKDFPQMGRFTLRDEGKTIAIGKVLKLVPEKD
UniProt Q7Z4H7: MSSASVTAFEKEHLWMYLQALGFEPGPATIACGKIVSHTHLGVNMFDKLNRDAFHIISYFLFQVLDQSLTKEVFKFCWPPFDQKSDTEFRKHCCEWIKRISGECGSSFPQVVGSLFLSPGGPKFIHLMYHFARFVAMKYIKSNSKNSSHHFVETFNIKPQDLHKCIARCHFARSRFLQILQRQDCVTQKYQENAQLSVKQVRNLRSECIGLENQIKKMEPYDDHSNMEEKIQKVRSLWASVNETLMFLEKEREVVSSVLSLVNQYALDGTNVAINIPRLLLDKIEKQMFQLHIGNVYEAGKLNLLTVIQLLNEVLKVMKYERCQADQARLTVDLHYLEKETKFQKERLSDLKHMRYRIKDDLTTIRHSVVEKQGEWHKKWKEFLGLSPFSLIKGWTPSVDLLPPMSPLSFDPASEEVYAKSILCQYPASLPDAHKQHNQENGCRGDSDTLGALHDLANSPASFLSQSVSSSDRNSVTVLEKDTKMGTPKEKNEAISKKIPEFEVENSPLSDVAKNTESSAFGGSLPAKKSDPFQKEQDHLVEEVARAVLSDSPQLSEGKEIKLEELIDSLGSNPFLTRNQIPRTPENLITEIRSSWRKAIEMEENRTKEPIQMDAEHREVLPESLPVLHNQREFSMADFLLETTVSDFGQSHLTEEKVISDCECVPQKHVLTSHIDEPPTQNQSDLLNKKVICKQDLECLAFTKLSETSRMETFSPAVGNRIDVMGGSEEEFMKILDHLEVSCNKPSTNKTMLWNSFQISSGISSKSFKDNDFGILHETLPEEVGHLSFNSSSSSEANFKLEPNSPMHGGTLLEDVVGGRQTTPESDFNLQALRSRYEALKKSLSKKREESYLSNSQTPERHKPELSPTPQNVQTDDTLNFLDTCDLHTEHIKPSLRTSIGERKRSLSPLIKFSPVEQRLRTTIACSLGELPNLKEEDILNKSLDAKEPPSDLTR
UniProt Q9BSH5: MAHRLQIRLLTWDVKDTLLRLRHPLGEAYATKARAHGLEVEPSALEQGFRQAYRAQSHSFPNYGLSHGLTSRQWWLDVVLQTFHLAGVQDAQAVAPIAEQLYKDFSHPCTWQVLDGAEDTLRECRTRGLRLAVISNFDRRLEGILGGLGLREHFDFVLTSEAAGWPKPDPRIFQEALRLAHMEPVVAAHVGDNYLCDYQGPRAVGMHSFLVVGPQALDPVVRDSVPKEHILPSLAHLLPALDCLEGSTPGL
UniProt P14317: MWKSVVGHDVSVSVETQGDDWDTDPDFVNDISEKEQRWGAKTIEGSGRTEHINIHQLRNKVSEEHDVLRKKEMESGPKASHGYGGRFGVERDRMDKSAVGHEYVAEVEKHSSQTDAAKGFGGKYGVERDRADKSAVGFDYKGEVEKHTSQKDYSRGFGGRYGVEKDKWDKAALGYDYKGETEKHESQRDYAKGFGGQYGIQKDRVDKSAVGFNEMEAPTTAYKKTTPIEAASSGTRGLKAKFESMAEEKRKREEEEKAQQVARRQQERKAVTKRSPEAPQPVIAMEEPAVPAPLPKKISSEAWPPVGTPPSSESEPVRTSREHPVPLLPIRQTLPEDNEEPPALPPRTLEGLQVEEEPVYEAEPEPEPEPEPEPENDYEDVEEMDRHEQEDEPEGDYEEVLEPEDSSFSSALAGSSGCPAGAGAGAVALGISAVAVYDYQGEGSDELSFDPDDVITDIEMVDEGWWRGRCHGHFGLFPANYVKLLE
UniProt Q92759: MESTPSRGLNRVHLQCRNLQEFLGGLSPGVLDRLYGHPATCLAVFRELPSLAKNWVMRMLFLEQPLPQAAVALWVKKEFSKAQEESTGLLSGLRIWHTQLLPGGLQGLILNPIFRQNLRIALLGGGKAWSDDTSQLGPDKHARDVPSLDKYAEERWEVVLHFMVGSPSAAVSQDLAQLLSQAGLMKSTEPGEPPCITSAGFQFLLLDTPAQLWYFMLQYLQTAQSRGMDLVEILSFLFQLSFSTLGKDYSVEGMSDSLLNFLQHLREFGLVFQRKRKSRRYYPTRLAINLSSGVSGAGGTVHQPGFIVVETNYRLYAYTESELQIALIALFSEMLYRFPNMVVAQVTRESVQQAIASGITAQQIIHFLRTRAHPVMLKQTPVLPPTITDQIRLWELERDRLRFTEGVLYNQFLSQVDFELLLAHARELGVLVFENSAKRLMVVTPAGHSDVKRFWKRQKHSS
UniProt P40939: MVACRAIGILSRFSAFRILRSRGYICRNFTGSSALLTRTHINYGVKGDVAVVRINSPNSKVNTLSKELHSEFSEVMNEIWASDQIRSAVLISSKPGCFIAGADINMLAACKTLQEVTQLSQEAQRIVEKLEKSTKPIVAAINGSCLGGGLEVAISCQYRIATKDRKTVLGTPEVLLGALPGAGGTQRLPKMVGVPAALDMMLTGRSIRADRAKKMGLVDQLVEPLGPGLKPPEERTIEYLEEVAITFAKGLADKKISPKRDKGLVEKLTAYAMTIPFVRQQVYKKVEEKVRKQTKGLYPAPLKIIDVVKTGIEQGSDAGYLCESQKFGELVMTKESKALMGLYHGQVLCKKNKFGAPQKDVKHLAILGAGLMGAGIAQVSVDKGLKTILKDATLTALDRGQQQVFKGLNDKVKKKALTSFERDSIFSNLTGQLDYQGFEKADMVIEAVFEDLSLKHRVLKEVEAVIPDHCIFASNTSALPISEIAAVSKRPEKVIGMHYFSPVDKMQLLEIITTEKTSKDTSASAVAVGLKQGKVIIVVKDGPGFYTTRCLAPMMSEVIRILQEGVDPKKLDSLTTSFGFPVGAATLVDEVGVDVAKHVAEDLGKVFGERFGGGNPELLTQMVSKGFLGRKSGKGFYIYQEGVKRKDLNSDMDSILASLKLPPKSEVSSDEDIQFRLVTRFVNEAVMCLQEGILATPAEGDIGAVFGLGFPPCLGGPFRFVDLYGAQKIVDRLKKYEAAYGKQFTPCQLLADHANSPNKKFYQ
UniProt Q8WW33: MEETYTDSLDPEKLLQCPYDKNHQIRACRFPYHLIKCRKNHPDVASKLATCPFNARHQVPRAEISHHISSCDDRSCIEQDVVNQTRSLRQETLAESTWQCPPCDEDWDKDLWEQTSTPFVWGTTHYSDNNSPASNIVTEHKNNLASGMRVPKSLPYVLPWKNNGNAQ
UniProt P69905, whole entry, looked up: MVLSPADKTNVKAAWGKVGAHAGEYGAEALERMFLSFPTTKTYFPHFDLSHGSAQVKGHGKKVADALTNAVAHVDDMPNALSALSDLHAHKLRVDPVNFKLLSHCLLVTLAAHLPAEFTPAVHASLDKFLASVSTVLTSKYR
UniProt Q03013: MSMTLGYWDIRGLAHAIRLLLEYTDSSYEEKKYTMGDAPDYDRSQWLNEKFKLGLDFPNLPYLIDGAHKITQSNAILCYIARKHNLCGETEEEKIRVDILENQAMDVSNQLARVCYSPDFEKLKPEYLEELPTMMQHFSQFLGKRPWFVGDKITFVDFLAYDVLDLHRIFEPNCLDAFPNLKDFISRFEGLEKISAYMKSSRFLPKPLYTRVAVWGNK

[2] = compound: CS(=O)(=O)N1CCN(Cc2cc3nc(-c4cccc5[nH]ncc45)nc(N4CCOCC4)c3s2)CC1 [pictilisib]
Method in brief: as §1

[3] = compound: C[C@@H](Oc1cc(-c2cnn(C3CCNCC3)c2)cnc1N)c1c(Cl)ccc(F)c1Cl [crizotinib]
Method in brief: as §1

[4] = compound: C[C@H](C1=CC=C(C=C1)C(=O)NC2=C3C=CNC3=NC=C2)N
Method in brief: as §1

[5] = compound: C[C@H](Nc1ncnc2nc[nH]c12)c1cc2cccc(Cl)c2c(=O)n1-c1ccccc1 [duvelisib]
Method in brief: as §1

[6] = compound: Cc1cc(Nc2cc(CN3CCOCC3)c3nc(C)c(Cc4ccc(Cl)cc4F)n3n2)n[nH]1 [gandotinib]
Method in brief: as §1

[7] = compound: Cc1cc(Nc2cc(N3CCN(C)CC3)nc(Sc3ccc(NC(=O)C4CC4)cc3)n2)n[nH]1 [tozasertib]
Method in brief: as §1

[8] = compound: Cc1ccc(-n2nc(C(C)(C)C)cc2NC(=O)Nc2ccc(OCCN3CCOCC3)c3ccccc23)cc1 [doramapimod]
Method in brief: as §1

[9] = compound: Cc1ccc(NC(=O)c2ccc(CN3CC[C@H](N(C)C)C3)c(C(F)(F)F)c2)cc1Nc1nccc(-c2cncnc2)n1 [bafetinib]
Method in brief: as §1

[10] = compound: Cc1cccc(CC(=O)N2CCc3c2ccc(-c2cn(C)c4ncnc(N)c24)c3F)n1
Method in brief: as §1

[11] = compound: Cc1cn(-c2cc(NC(=O)c3ccc(C)c(Nc4nccc(-c5cccnc5)n4)c3)cc(C(F)(F)F)c2)cn1 [nilotinib]
Method in brief: as §1

[12] = compound: Cc1nc(Nc2n[nH]c3c2CN(C(=O)N[C@H](CN(C)C)c2ccccc2)C3(C)C)c2sccc2n1
Method in brief: as §1

[13] = compound: Cc1nc(Nc2ncc(C(=O)Nc3c(C)cccc3Cl)s2)cc(N2CCN(CCO)CC2)n1 [dasatinib]
Method in brief: as §1

[14] = compound: Cc1ncc(-c2ccnc(Nc3ccc(S(C)(=O)=O)cc3)n2)n1C(C)C
Method in brief: as §1

[15] = compound: Cn1cc(-c2ccc3c(c2)CCN3C(=O)Cc2cccc(C(F)(F)F)c2)c2c(N)ncnc21
Method in brief: as §1

[16] = compound: Cn1cc(CNCC2CCN(c3ncc(C(=O)NO)cn3)CC2)c2ccccc21 [quisinostat]
Method in brief: as §1

[17] = compound: Cn1cncc1[C@@](N)(c1ccc(Cl)cc1)c1ccc2c(c1)c(-c1cccc(Cl)c1)cc(=O)n2C [tipifarnib]
Method in brief: as §1

[18] = compound: NC(=O)Nc1cc(-c2cccc(F)c2)sc1C(=O)N[C@H]1CCCNC1
Method in brief: as §1

[19] = compound: NC(=O)c1cnc(N[C@@H]2CCCC[C@@H]2N)nc1Nc1cccc(-n2nccn2)c1
Method in brief: as §1

[20] = compound: NC1(c2ccc(-c3nc4ccn5c(=O)[nH]nc5c4cc3-c3ccccc3)cc2)CCC1
Method in brief: as §1

Target	log2 fold change [1]	log2 fold change [2]	log2 fold change [3]	log2 fold change [4]	log2 fold change [5]	log2 fold change [6]	log2 fold change [7]	log2 fold change [8]	log2 fold change [9]	log2 fold change [10]	log2 fold change [11]	log2 fold change [12]	log2 fold change [13]	log2 fold change [14]	log2 fold change [15]	log2 fold change [16]	log2 fold change [17]	log2 fold change [18]	log2 fold change [19]	log2 fold change [20]
HDDC3 (UniProt Q8N4P3)	inactive: 0.013	inactive: 0	inactive: 0.046	inactive: -0.017	inactive: -0.008	inactive: -0.037	inactive: -0.003	inactive: 0.023	inactive: -0.132	inactive: -0.04	inactive: 0.002	inactive: 0.006	inactive: -0.024	inactive: -0.085	inactive: 0.027	inactive: 0.044	inactive: -0.029	inactive: -0.033	inactive: -0.026	inactive: 0.034
GSR (UniProt P00390)	inactive: -0.029	inactive: -0.109	inactive: 0.006	inactive: -0.112	inactive: -0.01	inactive: 0.128	inactive: -0.023	inactive: -0.001	inactive: 0.093	inactive: 0.038	inactive: 0.06	inactive: 0.032	inactive: 0.029	inactive: 0.039	inactive: -0.028	inactive: -0.028	inactive: 0.001	inactive: 0.028	inactive: -0.042	inactive: -0.114
HAUS4 (UniProt Q9H6D7)	inactive: 0.021	inactive: -0.02	inactive: -0.083	inactive: -0.063	inactive: -0.031	inactive: -0.009	inactive: 0.042	inactive: 0.043	inactive: 0.003	inactive: 0.099	inactive: 0.03	inactive: -0.05	inactive: -0.052	inactive: 0.016	inactive: 0.052	inactive: -0.065	inactive: -0.021	inactive: 0.053	inactive: 0.014	inactive: -0.012
GSKIP (UniProt Q9P0R6)	inactive: 0.069	inactive: -0.04	inactive: -0.06	inactive: 0.183	inactive: 0.021	inactive: 0.028	inactive: -0.095	inactive: 0.173	inactive: -0.025	inactive: -0.064	inactive: 0.031	inactive: -0.036	inactive: -0.056	inactive: 0.16	inactive: -0.037	inactive: 0.116	inactive: 0.025	inactive: -0.038	inactive: -0.072	inactive: -0.004
HARS2 (UniProt P49590)	inactive: 0.012	inactive: -0.025	inactive: -0.136	inactive: 0.025	inactive: 0.14	inactive: -0.035	inactive: -0.061	inactive: 0.026	inactive: 0.031	inactive: -0.013	inactive: 0.015	inactive: -0.02	inactive: -0.027	inactive: -0.023	inactive: 0.06	inactive: 0.005	inactive: 0.012	inactive: 0.027	inactive: 0.036	inactive: -0.014
HADH isoform 2 (UniProt Q16836)	inactive: -0.011	inactive: 0.04	inactive: 0.031	inactive: 0.057	inactive: -0.044	inactive: -0.05	inactive: 0.053	inactive: -0.055	inactive: 0.045	inactive: -0.055	inactive: -0.028	inactive: 0.049	active: 0.288	inactive: 0.031	inactive: 0.008	inactive: 0.124	inactive: 0.032	inactive: -0.006	inactive: 0.029	inactive: -0.031
HDAC3 (UniProt O15379)	inactive: 0.02	inactive: 0.008	inactive: 0.015	inactive: 0.076	inactive: -0.067	inactive: -0.015	inactive: 0.054	inactive: -0.024	inactive: -0.005	inactive: -0.045	inactive: -0.079	inactive: -0.019	inactive: 0.04	inactive: -0.026	inactive: 0.007	inactive: -0.004	inactive: -0.102	inactive: 0.038	inactive: -0.004	inactive: -0.049
GSPT2 (UniProt Q8IYD1)	inactive: 0.001	inactive: -0.056	inactive: -0.065	inactive: -0.098	inactive: -0.042	inactive: 0.077	inactive: 0.008	inactive: -0.009	inactive: -0.092	inactive: 0.014	inactive: -0.007	inactive: -0.028	inactive: 0.071	inactive: 0.104	inactive: 0.066	inactive: -0.133	inactive: 0	inactive: 0.045	inactive: -0.001	inactive: 0.059
HAUS6 (UniProt Q7Z4H7)	inactive: 0.001	inactive: -0.028	inactive: -0.029	inactive: -0.054	inactive: 0.006	inactive: -0.041	inactive: 0.046	inactive: -0.009	inactive: 0.051	inactive: 0.104	inactive: -0.022	inactive: -0.008	inactive: -0.057	inactive: 0.022	inactive: 0.038	inactive: -0.066	inactive: 0.053	inactive: 0.035	inactive: -0.055	inactive: -0.004
HDHD3 (UniProt Q9BSH5)	inactive: -0.012	inactive: -0.041	inactive: -0.037	inactive: 0.034	inactive: -0.016	inactive: -0.023	inactive: 0.12	inactive: 0.017	inactive: 0.038	inactive: -0.032	inactive: 0.036	inactive: 0.04	inactive: -0.011	inactive: -0.022	inactive: 0.027	inactive: -0.058	inactive: 0.021	inactive: -0.021	inactive: 0.013	inactive: -0.032
HCLS1 (UniProt P14317)	inactive: -0.013	inactive: 0.009	inactive: 0.073	inactive: 0.026	inactive: 0.002	inactive: -0.001	inactive: 0.009	inactive: 0.008	inactive: 0.032	inactive: -0.044	inactive: -0.022	inactive: 0.006	inactive: 0.022	inactive: 0.006	inactive: 0.018	inactive: 0.044	inactive: 0.022	inactive: -0.036	inactive: -0.016	inactive: 0.043
GTF2H4 (UniProt Q92759)	inactive: -0.026	inactive: 0.027	inactive: -0.025	inactive: 0.061	inactive: -0.01	inactive: -0.14	inactive: 0.031	inactive: 0	inactive: -0.039	inactive: 0.038	inactive: 0.006	inactive: 0.021	inactive: 0.003	inactive: 0.019	inactive: -0.011	inactive: -0.029	inactive: -0.008	inactive: 0.07	inactive: 0.04	inactive: -0.08
HADHA (UniProt P40939)	inactive: 0.1	inactive: 0.077	inactive: 0.063	inactive: -0.01	inactive: 0.037	inactive: 0.129	inactive: -0.013	inactive: 0.207	inactive: 0.032	inactive: -0.053	inactive: 0.051	inactive: -0.024	inactive: -0.036	inactive: 0.002	inactive: 0.03	inactive: -0.082	inactive: 0.025	inactive: -0.077	inactive: -0.071	inactive: 0.078
GTSF1 (UniProt Q8WW33)	inactive: 0.028	inactive: -0.033	inactive: 0.037	inactive: 0.03	inactive: -0.092	inactive: 0.041	inactive: 0.021	inactive: 0.033	inactive: 0.03	inactive: -0.027	inactive: 0.035	inactive: -0.003	inactive: 0.022	inactive: -0.016	inactive: -0.107	inactive: 0.007	inactive: 0.009	inactive: -0.031	inactive: -0.036	inactive: 0.001
HBA1 (UniProt P69905)	inactive: 0.08	inactive: 0.006	inactive: -0.001	inactive: 0.101	inactive: 0.048	inactive: -0.004	inactive: 0.059	inactive: 0.025	inactive: -0.031	inactive: -0.053	inactive: 0.08	inactive: 0.02	inactive: 0.024	inactive: 0.123	inactive: 0.006	inactive: 0.018	inactive: 0.03	inactive: -0.056	inactive: -0.052	inactive: -0.012
GSTM4 (UniProt Q03013)	inactive: -0.091	inactive: 0.073	inactive: -0.006	inactive: -0.118	inactive: -0.034	inactive: 0.011	inactive: -0.12	inactive: 0.076	inactive: 0.029	inactive: 0.051	inactive: -0.163	inactive: 0.019	inactive: -0.047	inactive: 0.054	inactive: 0.118	inactive: 0.163	inactive: 0.008	inactive: -0.003	inactive: 0.024	inactive: -0.032

Copied from above (3 entries):
Target	log2 fold change [1]	log2 fold change [2]	log2 fold change [3]	log2 fold change [4]	log2 fold change [5]	log2 fold change [6]	log2 fold change [7]	log2 fold change [8]	log2 fold change [9]	log2 fold change [10]	log2 fold change [11]	log2 fold change [12]	log2 fold change [13]	log2 fold change [14]	log2 fold change [15]	log2 fold change [16]	log2 fold change [17]	log2 fold change [18]	log2 fold change [19]	log2 fold change [20]
GSKIP (UniProt Q9P0R6)	inactive: 0.069	inactive: -0.04	inactive: -0.06	inactive: 0.183	inactive: 0.021	inactive: 0.028	inactive: -0.095	inactive: 0.173	inactive: -0.025	inactive: -0.064	inactive: 0.031	inactive: -0.036	inactive: -0.056	inactive: 0.16	inactive: -0.037	inactive: 0.116	inactive: 0.025	inactive: -0.038	inactive: -0.072	inactive: -0.004
HARS2 (UniProt P49590)	inactive: 0.012	inactive: -0.025	inactive: -0.136	inactive: 0.025	inactive: 0.14	inactive: -0.035	inactive: -0.061	inactive: 0.026	inactive: 0.031	inactive: -0.013	inactive: 0.015	inactive: -0.02	inactive: -0.027	inactive: -0.023	inactive: 0.06	inactive: 0.005	inactive: 0.012	inactive: 0.027	inactive: 0.036	inactive: -0.014
HADH isoform 2 (UniProt Q16836)	inactive: -0.011	inactive: 0.04	inactive: 0.031	inactive: 0.057	inactive: -0.044	inactive: -0.05	inactive: 0.053	inactive: -0.055	inactive: 0.045	inactive: -0.055	inactive: -0.028	inactive: 0.049	active: 0.288	inactive: 0.031	inactive: 0.008	inactive: 0.124	inactive: 0.032	inactive: -0.006	inactive: 0.029	inactive: -0.031

Source: the supplement of paper PMC10849652
